# Assay results reported in patent publication US20090304625A1, “MODULATORS OF CARDIAC CELL HYPERTROPHY AND HYPERPLASIA” (priority 2006, published 2009).
# At least one structure is not confirmed: it was looked up by name or label, or the drawing left a doubt.
# Key:
# [1] = test system: LV cardiomyocytes; experiment: Response to suprarenal aortic constriction (SAC) in cromolyn-treated WT mice; type: in vivo, mouse; settings: cromolyn 60 mg/kg/day
# [2] = test system: c-kit+ CSCs; experiment: c-kit+ cardiac stem cell numbers in LV of 7-day-SAC WT mice; type: in vivo, mouse; settings: cromolyn 60 mg/kg/day started 7 days before SAC
# Source text: Induction of pressure overload: At eight weeks of age, WT or Kit^w/Kit^w-v mice were subjected to suprarenal aortic constriction (SAC) to induce hypertension and, thus, pressure overload, or to sham operation, as previously described (M. Li et al. (2004)). One group (both SAC and sham-operated animals) was allowed to recover from surgery for 2 days and animals surviving this peri-operative period were then followed for survival over the next 28 days. A second group were sacrificed at 3, 7 or 14 days after SAC, and a third group was treated with the mast cell stabilizer, sodium chromoglycate (60 mg/kg/day, intraperitoneal, osmotic minipump) for one week before and then for the 7 days after surgery, at which time they were sacrificed. […] There are several different but overlapping types of CSCs, which are grouped according to cell surface markers, e.g., ckit+, Sca1+, MDR1+, isl1+, e-kit+ CSCs differentiated into cardiomyocytes contributing to repair of a damaged heart. […] In the W/W^v- and WT-SAC LV myocardium, c-kit^+ CSCs occurred individually, in pairs or in large clusters. c-kit^+ CSC clusters were not seen in the LVs of WT- or […] were rare in WT-SAC mice. Compared to sham controls, 7 days of SAC increased c-kit^+ CSCs 19-fold in the […]<0.001; FIG. 6A). Compared to the WT-SAC LV, the increase was 5.5-fold (P<0.01; FIG. 6A). […]
compound,measurement,setting,value
"O=C(O)c1cc(=O)c2c(OCC(O)COc3cccc4oc(C(=O)O)cc(=O)c34)cccc2o1 [cromolyn, sodium chromoglycate]",hyperplasia and BrdU+ or Ki67+ cardiomyocytes,[1],not evident
same,"response to SAC (LV function, cardiomyocyte hypertrophy vs vehicle-treated)",[1],did not alter the response to SAC
same,change in c-kit+ CSCs relative to vehicle controls,[2],did not significantly increase
